In article PMC9174988:
These are yes or no findings as the source states them, for the method shown. In cells and extracts the contact can be indirect. Some entries that bind do so weakly or less than the wild type. For part of these data: Where a sequence is shown, tags or fusion partners need not be part of it.

By UniProt entry, the sequences of proteins in these tests, tags left out.
UniProt P60879: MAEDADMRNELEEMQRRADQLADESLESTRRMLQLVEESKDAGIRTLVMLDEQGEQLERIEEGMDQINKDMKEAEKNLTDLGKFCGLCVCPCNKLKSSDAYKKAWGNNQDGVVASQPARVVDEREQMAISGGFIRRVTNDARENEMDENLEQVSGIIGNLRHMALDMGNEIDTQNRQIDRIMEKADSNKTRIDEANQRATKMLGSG
UniProt P61264: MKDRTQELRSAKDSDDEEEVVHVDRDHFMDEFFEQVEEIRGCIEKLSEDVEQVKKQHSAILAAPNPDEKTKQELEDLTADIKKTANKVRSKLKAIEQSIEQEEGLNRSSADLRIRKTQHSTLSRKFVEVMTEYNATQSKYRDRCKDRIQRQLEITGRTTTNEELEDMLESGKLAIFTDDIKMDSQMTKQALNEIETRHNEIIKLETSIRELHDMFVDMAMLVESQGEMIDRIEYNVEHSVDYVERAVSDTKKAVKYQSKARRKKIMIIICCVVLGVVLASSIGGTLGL
UniProt Q8BVE3: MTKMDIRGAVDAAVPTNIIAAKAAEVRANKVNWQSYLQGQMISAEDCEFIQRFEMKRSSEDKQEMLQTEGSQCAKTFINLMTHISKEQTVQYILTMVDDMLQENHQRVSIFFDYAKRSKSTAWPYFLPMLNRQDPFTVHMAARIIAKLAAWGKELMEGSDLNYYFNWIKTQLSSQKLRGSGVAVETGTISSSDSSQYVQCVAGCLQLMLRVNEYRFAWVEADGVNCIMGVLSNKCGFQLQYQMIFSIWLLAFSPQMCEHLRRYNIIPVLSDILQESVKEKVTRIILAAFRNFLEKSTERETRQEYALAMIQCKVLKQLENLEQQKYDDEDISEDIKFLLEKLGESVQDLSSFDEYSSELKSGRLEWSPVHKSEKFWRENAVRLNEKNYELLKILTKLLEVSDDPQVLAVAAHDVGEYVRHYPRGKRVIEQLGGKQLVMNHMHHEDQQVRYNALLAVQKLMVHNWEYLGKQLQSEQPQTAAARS
UniProt Q9Z1G4: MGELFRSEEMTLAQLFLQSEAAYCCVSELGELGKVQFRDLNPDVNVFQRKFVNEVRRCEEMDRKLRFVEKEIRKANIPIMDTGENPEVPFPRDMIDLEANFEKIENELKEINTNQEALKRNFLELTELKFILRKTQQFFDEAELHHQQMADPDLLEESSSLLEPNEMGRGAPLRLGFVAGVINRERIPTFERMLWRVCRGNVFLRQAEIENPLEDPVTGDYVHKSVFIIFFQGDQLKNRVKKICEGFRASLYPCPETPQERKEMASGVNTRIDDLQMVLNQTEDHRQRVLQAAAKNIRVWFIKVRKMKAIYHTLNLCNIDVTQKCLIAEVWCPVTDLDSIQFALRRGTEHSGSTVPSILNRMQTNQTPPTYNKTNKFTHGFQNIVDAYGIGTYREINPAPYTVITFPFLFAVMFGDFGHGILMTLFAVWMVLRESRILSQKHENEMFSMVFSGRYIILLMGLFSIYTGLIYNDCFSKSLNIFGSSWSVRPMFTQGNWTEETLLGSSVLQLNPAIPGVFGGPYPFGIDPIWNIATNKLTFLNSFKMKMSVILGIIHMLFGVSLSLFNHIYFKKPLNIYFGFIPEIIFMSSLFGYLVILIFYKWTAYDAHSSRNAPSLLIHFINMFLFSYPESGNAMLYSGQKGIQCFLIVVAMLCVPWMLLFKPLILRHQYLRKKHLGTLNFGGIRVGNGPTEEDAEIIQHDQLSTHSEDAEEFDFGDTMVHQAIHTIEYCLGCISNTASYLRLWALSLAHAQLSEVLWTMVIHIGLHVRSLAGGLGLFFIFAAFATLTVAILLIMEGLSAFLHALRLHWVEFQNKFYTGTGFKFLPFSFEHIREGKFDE

Legend:
[1] = target: T1, hCLN6 (AAV9-hCLN6 transgene) (human) (UniProt Q9NWW5); assay: co-IP; hCLN6 (AAV9-hCLN6 representatives) immunoprecipitation; Western blot of partners; input ~3% of total protein loaded on IPs
T1 sequence: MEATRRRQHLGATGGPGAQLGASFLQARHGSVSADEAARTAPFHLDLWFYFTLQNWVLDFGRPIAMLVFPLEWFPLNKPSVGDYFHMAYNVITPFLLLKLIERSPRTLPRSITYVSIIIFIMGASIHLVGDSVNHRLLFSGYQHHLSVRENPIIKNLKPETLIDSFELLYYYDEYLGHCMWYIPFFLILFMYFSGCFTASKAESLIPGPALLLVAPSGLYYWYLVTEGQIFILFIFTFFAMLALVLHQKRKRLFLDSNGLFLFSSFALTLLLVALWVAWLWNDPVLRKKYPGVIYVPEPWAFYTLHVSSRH

[2] = target: Synaptosome associated protein 25 (mouse (endogenous in mouse cortex)) (UniProt P60879); assay: co-IP; P30 mouse brain (cortex) lysate of wild type, Cln3Δex7/8, Cln6nclf and Cln8mnd mice immunoprecipitated with anti-SNAP25 antibody; blots for STX1B, STX1 and VAMP; input ~3%
[3] = target: CLN8 (tagged CLN8 expression plasmid) (UniProt Q9UBY8); assay: co-IP; tagged CLN3 or CLN8 expression plasmids used for immunoprecipitation; Western blot of partners; input ~3% of total protein loaded on IPs
[4] = target: T2, CLN3 (tagged CLN3 expression plasmid) (UniProt Q13286); assay: as above
T2 sequence: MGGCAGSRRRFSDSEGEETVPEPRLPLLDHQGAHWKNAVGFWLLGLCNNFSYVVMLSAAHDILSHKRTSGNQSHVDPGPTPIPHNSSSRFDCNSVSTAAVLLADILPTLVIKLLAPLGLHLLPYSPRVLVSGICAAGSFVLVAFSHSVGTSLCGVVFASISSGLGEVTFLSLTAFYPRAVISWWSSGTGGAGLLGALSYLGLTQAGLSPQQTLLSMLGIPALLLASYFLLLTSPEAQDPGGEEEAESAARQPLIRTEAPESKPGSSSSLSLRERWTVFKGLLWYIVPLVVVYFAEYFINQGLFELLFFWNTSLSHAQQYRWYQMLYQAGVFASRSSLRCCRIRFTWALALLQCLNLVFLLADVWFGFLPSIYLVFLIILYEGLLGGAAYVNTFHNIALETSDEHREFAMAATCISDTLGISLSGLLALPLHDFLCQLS

Row | Substance | binding [1] | other results
1 | STX1B (mouse cortex) (from UniProt P61264 1-288) | binds | binding [2]: binds
2 | ATPase H+ Transporting V1 Subunit H (in neuroblastoma cells) (from UniProt Q8BVE3 1-483) |  | binding [3]: binds
3 | ATPase H+ Transporting V1 Subunit H (mouse cortex) (from UniProt Q8BVE3 1-483) | binds | 
4 | STX1B (in neuroblastoma cells) (from UniProt P61264 1-288) |  | binding [4]: binds
5 | ATP6V0A1 (mouse cortex) (from UniProt Q9Z1G4 1-839) | binds | 
